Source: publication PMC7671996
Results are given in words; binding and its absence hold for the method and conditions named. In cells and extracts the contact can be indirect. Some results given as binding are weak or reduced against the parent protein; the word gives no strength. For some assays here: Where a sequence is shown, tags or fusion partners need not be part of it.

Protein sequences, listed by entry. Tags and fused reporters are not part of them. Lines headed by an entry give the natural chain unless they say otherwise; changes in a name come on top. Residues count along the entry.
UniProt Q96SW2: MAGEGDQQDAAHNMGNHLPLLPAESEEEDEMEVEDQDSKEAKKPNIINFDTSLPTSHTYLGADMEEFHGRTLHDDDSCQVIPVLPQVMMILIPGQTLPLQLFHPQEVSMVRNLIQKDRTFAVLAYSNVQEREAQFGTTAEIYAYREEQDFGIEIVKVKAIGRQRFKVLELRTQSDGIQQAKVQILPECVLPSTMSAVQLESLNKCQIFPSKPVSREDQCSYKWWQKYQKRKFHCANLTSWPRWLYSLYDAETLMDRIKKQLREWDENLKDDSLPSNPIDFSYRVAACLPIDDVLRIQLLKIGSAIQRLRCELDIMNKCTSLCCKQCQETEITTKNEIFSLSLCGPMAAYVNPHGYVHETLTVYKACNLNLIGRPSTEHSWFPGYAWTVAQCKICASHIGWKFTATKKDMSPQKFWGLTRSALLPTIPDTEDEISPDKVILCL
CRBN truncated mutant (81-317, Lon N-terminal): residues 81-317 of Q96SW2
UniProt P26367: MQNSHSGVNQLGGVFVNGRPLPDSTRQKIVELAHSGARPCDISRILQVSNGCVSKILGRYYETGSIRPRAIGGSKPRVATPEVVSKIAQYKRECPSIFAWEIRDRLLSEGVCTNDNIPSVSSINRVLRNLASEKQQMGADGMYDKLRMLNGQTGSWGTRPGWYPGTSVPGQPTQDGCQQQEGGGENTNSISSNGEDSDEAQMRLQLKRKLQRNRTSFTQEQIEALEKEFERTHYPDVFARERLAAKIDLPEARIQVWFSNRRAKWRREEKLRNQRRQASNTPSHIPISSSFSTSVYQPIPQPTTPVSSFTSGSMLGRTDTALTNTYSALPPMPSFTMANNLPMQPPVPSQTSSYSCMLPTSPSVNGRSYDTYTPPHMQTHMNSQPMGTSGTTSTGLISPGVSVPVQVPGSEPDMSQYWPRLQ
UniProt Q16531: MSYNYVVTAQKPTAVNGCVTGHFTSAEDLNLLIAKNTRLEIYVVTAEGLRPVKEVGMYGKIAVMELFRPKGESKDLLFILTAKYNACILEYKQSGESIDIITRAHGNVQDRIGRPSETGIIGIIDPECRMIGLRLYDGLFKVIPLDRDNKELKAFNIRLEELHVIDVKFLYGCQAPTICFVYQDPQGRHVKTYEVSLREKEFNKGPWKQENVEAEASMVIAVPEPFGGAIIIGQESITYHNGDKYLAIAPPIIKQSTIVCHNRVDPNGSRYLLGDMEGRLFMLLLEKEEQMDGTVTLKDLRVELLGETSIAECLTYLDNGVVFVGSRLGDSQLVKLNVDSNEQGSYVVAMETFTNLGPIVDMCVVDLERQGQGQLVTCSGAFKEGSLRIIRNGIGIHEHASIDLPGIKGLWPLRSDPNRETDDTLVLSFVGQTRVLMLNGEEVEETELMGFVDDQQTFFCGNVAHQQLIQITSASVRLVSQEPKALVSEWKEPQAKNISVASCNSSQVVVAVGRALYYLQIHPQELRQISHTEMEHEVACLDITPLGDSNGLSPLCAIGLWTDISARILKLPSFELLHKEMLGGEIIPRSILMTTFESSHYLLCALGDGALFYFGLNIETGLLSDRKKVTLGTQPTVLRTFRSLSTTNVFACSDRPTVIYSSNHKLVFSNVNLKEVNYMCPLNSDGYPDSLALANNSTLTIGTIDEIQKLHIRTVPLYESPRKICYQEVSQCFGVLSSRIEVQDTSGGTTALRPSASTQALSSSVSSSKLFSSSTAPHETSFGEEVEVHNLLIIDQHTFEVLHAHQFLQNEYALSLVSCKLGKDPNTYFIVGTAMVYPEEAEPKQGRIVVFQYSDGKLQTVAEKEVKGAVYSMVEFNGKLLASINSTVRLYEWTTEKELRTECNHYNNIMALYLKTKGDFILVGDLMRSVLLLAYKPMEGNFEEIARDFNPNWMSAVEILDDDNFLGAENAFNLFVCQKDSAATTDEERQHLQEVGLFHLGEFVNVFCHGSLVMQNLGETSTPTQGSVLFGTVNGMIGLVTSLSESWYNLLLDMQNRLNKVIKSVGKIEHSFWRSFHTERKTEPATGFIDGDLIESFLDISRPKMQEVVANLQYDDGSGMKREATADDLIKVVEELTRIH
UniProt Q13619: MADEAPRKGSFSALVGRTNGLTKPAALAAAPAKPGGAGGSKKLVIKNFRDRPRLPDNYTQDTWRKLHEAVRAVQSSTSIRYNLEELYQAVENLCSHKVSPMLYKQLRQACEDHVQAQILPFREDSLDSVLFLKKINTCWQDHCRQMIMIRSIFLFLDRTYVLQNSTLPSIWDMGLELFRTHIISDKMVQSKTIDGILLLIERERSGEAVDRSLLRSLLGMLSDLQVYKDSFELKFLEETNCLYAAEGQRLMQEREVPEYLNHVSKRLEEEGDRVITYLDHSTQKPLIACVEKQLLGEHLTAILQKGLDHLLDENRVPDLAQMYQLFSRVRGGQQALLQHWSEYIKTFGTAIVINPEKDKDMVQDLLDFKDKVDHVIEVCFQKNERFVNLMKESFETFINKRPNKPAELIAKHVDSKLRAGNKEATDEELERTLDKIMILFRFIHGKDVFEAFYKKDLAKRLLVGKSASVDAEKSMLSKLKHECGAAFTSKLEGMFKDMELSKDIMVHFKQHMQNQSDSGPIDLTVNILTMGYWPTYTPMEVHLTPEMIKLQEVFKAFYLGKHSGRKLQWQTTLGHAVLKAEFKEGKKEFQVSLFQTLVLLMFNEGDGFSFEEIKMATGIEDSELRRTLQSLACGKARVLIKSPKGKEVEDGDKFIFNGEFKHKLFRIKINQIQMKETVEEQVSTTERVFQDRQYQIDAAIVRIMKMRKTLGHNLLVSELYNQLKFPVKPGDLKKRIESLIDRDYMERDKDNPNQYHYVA

How the values were obtained:
[1] = target: Cereblon (CRBN), endogenous (human (endogenous in HUVEC and HEK293T)) (UniProt Q96SW2); experiment: co-IP; HUVEC treated with 50 μM thalidomide or not; co-IP of EGFL6 and CRBN
[2] = target: Paired box 6 (PAX6), endogenous (human (endogenous in HUVEC)) (UniProt P26367); experiment: co-IP; reciprocal co-IP of endogenous proteins from HUVEC lysate with anti-EGFL6 and anti-PAX6 antibody; IgG as control
[3] = target: DDB1 (human (endogenous in HEK293T)) (UniProt Q16531); experiment: co-IP; HEK293T cells; endogenous EGFL6 and CRBN-DDB1-Cullin 4A complex
[4] = target: Cereblon (CRBN), endogenous (human (endogenous in HUVEC and HEK293T)) (UniProt Q96SW2); experiment: as above
[5] = target: Cullin 4A (human (endogenous in HEK293T)) (UniProt Q13619); experiment: as above
[6] = target: CRBN truncated mutant (81-317, Lon N-terminal) (UniProt Q96SW2); experiment: co-IP; HEK293T cells co-transfected with EGFL6 WT or truncated mutants and Myc-CRBN WT, or CRBN WT or truncated mutants and Flag-EGFL6 WT; reciprocal co-IP; control vector
Myc-CRBN wild type = Myc-CRBN wild type (UniProt Q96SW2); experiment: as above

binding [1]	binding [2]	binding [3]	binding [4]	binding [5]	binding [6]	binding (Myc-CRBN wild type)	Binder
binds	binds	binds	binds	binds	–	–	EGF like domain multiple 6 (EGFL6), endogenous (protein, UniProt Q8IUX8 22-553) NAASARHHGLLASARQPGVCHYGTKLACCYGWRRNSKGVCEATCEPGCKFGECVGPNKCRCFPGYTGKTCSQDVNECGMKPRPCQHRCVNTHGSYKCFCLSGHMLMPDATCVNSRTCAMINCQYSCEDTEEGPQCLCPSSGLRLAPNGRDCLDIDECASGKVICPYNRRCVNTFGSYYCKCHIGFELQYISGRYDCIDINECTMDSHTCSHHANCFNTQGSFKCKCKQGYKGNGLRCSAIPENSVKEVLRAPGTIKDRIKKLLAHKNSMKKKAKIKNVTPEPTRTPTPKVNLQPFNYEEIVSRGGNSHGGKKGNEEKMKEGLEDEKREEKALKNDIEERSLRGDVFFPKVNEAGEFGLILVQRKALTSKLEHKDLNISVDCSFNHGICDWKQDREDDFDWNPADRDNAIGFYMAVPALAGHKKDIGRLKLLLPDLQPQSNFCLLFDYRLAGDKVGKLRVFVKNSNNALAWEKTTSEDEKWKTGKIQLYQGTDATKSIIFEAERGKGKTGEIAVDGVLLVSGLCPDSLLSVDD
–	–	–	–	–	binds	binds	Flag-EGFL6 wild type (protein, UniProt Q8IUX8 22-553) NAASARHHGLLASARQPGVCHYGTKLACCYGWRRNSKGVCEATCEPGCKFGECVGPNKCRCFPGYTGKTCSQDVNECGMKPRPCQHRCVNTHGSYKCFCLSGHMLMPDATCVNSRTCAMINCQYSCEDTEEGPQCLCPSSGLRLAPNGRDCLDIDECASGKVICPYNRRCVNTFGSYYCKCHIGFELQYISGRYDCIDINECTMDSHTCSHHANCFNTQGSFKCKCKQGYKGNGLRCSAIPENSVKEVLRAPGTIKDRIKKLLAHKNSMKKKAKIKNVTPEPTRTPTPKVNLQPFNYEEIVSRGGNSHGGKKGNEEKMKEGLEDEKREEKALKNDIEERSLRGDVFFPKVNEAGEFGLILVQRKALTSKLEHKDLNISVDCSFNHGICDWKQDREDDFDWNPADRDNAIGFYMAVPALAGHKKDIGRLKLLLPDLQPQSNFCLLFDYRLAGDKVGKLRVFVKNSNNALAWEKTTSEDEKWKTGKIQLYQGTDATKSIIFEAERGKGKTGEIAVDGVLLVSGLCPDSLLSVDD
–	–	–	–	–	–	binds	EGFL6 truncated mutant (65-259) (domain or fragment, UniProt Q8IUX8 65-259) CEPGCKFGECVGPNKCRCFPGYTGKTCSQDVNECGMKPRPCQHRCVNTHGSYKCFCLSGHMLMPDATCVNSRTCAMINCQYSCEDTEEGPQCLCPSSGLRLAPNGRDCLDIDECASGKVICPYNRRCVNTFGSYYCKCHIGFELQYISGRYDCIDINECTMDSHTCSHHANCFNTQGSFKCKCKQGYKGNGLRCS
